The list shows a part of the results.
Tests used:
Test in all cases: log2 fold change, soluble protein after heating vs DMSO (PISA); higher = thermal stabilisation; K562 cells, 10 uM, 30 min; active = over 0.2 and 3.5 SD of the protein, either way, in both replicates (recomputed)
bafetinib = compound: Cc1ccc(NC(=O)c2ccc(CN3CC[C@H](N(C)C)C3)c(C(F)(F)F)c2)cc1Nc1nccc(-c2cncnc2)n1 [bafetinib]
How it was run: (§1)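 For each measurement, 10 μM compound was applied for 30 min to K562 cells at 2×10^6 cells/mL. Aliquots were heated for 3 min across 48°C-58°C, pooled, and extracted in PBS with 0.5% NP-40 at 4°C; the supernatant after 21,000xg for 90 min was soluble protein. This was quantified by TMTpro 16plex LC-MS/MS with channel sums equalised, and thermal stability was reported relative to control samples from duplicates, on a log2 fold-change scale.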

The chains behind the UniProt entries cited, without tags or fusion partners. Where a name states a change or a piece, a line headed by the entry shows the natural chain unless it says otherwise.
UniProt Q9NP55: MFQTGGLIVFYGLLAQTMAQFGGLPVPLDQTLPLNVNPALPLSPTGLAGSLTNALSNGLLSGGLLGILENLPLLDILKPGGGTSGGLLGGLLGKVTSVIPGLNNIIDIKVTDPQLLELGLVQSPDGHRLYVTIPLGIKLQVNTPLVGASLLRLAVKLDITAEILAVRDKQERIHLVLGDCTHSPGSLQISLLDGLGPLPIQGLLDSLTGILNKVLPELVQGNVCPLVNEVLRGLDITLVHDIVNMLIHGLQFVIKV
UniProt H3BUF6: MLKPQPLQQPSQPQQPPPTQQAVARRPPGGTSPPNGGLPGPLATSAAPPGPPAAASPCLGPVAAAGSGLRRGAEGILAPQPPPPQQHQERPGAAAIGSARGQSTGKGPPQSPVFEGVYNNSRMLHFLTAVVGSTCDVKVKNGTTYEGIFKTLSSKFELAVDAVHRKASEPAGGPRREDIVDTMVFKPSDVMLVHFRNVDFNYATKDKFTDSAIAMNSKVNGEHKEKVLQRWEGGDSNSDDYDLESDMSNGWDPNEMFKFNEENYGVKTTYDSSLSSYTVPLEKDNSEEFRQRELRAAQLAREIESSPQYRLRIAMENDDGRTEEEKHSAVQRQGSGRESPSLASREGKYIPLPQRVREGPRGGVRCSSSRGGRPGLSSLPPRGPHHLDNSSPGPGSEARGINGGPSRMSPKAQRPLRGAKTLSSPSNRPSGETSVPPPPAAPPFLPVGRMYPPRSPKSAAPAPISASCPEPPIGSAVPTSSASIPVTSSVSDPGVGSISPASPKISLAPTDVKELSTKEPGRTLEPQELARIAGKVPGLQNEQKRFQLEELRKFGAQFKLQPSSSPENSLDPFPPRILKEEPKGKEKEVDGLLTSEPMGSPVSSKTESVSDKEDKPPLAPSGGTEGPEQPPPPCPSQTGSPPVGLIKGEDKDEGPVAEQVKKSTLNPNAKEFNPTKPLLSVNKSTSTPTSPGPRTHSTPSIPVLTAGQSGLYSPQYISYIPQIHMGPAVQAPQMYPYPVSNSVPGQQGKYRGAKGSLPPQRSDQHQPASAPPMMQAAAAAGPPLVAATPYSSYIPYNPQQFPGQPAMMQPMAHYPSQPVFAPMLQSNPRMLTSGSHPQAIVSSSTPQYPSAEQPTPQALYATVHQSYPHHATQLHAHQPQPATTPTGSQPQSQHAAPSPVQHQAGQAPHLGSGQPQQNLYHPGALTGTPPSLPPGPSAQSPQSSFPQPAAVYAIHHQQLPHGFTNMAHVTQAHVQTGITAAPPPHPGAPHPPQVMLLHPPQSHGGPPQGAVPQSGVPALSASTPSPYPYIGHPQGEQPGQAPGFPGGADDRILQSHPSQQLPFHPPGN
UniProt Q9BUT1: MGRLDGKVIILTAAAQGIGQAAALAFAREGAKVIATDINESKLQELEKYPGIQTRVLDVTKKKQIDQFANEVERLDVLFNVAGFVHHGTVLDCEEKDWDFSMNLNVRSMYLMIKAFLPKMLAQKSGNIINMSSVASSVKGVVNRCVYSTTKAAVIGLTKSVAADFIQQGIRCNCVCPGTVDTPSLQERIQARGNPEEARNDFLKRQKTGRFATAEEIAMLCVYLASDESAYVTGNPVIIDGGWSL
UniProt Q9UL45: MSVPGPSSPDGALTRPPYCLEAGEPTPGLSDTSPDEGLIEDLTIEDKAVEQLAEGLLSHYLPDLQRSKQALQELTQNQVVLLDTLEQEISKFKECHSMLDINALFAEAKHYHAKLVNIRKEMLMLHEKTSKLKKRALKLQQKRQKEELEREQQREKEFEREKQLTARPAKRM
UniProt P25440, whole entry, looked up: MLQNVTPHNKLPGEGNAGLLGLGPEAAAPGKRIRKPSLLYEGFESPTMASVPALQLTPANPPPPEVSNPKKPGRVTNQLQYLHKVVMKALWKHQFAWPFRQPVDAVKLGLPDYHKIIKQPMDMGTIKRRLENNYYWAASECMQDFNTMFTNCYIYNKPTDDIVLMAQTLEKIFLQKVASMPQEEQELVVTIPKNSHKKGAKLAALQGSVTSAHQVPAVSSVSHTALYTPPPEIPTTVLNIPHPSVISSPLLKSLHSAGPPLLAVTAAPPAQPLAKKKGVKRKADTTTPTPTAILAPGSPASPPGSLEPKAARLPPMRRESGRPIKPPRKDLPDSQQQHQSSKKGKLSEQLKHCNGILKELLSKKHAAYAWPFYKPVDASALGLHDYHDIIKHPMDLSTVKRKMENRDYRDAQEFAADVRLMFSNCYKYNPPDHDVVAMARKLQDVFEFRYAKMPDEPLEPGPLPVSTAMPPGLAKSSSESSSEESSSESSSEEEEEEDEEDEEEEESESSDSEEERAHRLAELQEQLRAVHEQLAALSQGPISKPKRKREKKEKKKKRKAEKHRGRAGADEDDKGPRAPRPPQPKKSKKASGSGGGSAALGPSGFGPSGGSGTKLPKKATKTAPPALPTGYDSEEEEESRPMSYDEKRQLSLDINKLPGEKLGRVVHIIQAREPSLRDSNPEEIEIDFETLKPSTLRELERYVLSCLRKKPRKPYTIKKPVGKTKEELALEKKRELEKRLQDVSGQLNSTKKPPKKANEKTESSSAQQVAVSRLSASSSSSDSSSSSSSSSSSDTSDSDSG
UniProt P15056, whole entry, looked up: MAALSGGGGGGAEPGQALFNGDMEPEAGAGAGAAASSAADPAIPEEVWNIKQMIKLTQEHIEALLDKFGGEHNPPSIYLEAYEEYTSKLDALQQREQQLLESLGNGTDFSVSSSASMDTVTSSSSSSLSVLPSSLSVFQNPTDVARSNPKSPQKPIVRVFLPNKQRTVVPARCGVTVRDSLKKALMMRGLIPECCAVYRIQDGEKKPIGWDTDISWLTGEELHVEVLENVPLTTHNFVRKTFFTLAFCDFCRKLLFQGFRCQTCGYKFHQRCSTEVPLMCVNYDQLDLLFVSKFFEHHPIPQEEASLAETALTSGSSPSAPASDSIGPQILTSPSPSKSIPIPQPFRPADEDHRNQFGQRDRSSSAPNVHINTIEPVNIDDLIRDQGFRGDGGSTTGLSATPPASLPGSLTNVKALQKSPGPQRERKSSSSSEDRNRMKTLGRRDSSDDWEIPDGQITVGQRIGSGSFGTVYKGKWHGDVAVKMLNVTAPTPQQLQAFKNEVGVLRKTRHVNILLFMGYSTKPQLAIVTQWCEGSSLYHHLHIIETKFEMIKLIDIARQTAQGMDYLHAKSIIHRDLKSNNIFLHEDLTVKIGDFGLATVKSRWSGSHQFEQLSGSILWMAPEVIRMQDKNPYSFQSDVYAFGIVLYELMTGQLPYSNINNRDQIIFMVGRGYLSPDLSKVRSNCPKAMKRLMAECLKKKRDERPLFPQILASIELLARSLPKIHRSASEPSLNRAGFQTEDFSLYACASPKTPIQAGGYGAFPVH
UniProt Q8WY22: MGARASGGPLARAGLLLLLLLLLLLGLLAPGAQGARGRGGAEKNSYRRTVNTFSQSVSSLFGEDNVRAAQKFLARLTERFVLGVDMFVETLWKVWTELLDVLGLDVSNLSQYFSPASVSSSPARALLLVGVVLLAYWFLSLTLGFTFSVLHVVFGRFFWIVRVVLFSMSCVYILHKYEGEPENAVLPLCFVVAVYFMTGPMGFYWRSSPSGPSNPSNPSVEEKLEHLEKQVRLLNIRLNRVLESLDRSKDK
UniProt Q9NQS1: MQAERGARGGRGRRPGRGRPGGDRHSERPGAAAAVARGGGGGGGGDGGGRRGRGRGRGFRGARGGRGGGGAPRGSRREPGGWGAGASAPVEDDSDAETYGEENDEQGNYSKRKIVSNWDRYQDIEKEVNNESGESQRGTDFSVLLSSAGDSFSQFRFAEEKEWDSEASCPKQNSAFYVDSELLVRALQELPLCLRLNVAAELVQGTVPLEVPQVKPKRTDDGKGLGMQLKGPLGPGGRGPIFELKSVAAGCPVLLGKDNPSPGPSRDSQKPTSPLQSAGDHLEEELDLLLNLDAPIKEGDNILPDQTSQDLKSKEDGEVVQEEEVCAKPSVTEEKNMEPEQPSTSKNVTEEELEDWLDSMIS
UniProt O60513: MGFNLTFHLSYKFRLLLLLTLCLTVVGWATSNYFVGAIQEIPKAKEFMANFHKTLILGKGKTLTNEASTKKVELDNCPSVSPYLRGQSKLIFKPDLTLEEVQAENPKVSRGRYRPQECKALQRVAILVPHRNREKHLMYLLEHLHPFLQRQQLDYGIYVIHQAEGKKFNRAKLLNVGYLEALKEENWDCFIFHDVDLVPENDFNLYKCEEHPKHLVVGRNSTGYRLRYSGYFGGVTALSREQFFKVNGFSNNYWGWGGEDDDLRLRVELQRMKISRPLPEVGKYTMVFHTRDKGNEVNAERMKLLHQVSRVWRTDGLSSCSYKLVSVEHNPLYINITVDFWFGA
UniProt P54132: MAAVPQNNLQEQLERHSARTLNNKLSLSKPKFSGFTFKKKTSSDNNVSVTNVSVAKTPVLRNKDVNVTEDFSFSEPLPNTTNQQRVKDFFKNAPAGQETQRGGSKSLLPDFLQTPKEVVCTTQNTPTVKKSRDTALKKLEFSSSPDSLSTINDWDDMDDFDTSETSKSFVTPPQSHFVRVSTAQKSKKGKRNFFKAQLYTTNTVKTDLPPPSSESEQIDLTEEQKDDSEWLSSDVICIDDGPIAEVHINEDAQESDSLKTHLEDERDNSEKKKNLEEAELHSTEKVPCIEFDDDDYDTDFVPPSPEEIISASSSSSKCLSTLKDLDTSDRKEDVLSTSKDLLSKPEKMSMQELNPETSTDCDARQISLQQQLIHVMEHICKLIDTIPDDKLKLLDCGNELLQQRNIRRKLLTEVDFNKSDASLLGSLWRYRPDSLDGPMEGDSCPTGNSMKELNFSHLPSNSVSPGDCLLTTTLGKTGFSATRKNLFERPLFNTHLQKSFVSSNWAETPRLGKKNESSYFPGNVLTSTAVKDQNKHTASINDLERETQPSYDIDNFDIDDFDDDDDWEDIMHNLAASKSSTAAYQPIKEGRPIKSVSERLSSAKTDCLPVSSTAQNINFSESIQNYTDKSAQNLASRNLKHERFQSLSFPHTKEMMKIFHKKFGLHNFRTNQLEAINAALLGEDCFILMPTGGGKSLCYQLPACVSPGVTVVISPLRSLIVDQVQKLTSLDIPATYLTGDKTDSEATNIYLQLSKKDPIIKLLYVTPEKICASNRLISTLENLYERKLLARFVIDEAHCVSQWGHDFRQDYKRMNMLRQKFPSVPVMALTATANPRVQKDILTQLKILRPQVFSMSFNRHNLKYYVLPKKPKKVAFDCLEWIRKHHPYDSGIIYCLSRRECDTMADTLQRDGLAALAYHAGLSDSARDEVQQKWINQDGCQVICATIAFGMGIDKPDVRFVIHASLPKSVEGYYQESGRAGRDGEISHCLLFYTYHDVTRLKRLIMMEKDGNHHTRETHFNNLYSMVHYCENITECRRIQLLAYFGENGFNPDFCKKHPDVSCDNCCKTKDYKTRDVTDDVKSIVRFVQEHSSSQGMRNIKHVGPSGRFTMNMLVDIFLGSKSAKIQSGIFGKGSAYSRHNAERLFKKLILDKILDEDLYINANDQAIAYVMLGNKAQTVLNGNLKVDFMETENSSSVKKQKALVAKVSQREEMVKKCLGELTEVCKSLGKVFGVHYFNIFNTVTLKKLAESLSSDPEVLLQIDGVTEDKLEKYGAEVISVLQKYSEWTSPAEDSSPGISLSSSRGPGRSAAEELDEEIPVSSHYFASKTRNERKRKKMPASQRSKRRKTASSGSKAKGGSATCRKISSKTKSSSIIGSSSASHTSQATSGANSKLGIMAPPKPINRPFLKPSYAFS
UniProt Q14CW9: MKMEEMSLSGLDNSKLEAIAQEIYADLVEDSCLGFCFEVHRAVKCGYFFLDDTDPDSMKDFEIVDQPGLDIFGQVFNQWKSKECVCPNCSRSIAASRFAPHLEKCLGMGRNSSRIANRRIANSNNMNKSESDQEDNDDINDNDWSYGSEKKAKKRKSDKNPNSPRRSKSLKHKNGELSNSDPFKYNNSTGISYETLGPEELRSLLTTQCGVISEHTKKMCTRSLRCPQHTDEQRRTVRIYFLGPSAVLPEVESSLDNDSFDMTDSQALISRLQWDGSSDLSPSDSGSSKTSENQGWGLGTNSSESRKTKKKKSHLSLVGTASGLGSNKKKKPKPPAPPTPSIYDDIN

nilotinib = compound: Cc1cn(-c2cc(NC(=O)c3ccc(C)c(Nc4nccc(-c5cccnc5)n4)c3)cc(C(F)(F)F)c2)cn1 [nilotinib]
How it was run: as §1

[1] = compound: Cc1nc(Nc2n[nH]c3c2CN(C(=O)N[C@H](CN(C)C)c2ccccc2)C3(C)C)c2sccc2n1
How it was run: as §1

[2] = compound: Cc1ncc(-c2ccnc(Nc3ccc(S(C)(=O)=O)cc3)n2)n1C(C)C
How it was run: as §1

[3] = compound: Cn1cc(-c2ccc3nnc(C(F)(F)c4ccc5ncccc5c4)n3n2)cn1
How it was run: as §1

mubritinib = compound: FC(F)(F)c1ccc(/C=C/c2nc(COc3ccc(CCCCn4ccnn4)cc3)co2)cc1 [mubritinib]
How it was run: as §1

[4] = compound: NC(=O)Nc1cc(-c2cccc(F)c2)sc1C(=O)N[C@H]1CCCNC1
How it was run: as §1

[5] = compound: NC1(c2ccc(-c3nc4ccn5c(=O)[nH]nc5c4cc3-c3ccccc3)cc2)CCC1
How it was run: as §1

entinostat = compound: Nc1ccccc1NC(=O)c1ccc(CNC(=O)OCc2cccnc2)cc1 [entinostat]
How it was run: as §1

citarinostat = compound: O=C(CCCCCCNC(=O)c1cnc(N(c2ccccc2)c2ccccc2Cl)nc1)NO [citarinostat]
How it was run: as §1

silmitasertib = compound: O=C(O)c1ccc2c(c1)nc(Nc1cccc(Cl)c1)c1ccncc12 [silmitasertib]
How it was run: as §1

[6] = compound: c1cc(OCCN2CCCCC2)cc(-c2n[nH]c3ccc(-c4nnc[nH]4)cc23)c1
How it was run: as §1

[7] = compound: Cc1cccc(CC(=O)N2CCc3c2ccc(-c2cn(C)c4ncnc(N)c24)c3F)n1
How it was run: as §1

tipifarnib = compound: Cn1cncc1[C@@](N)(c1ccc(Cl)cc1)c1ccc2c(c1)c(-c1cccc(Cl)c1)cc(=O)n2C [tipifarnib]
How it was run: as §1

vorinostat = compound: O=C(CCCCCCC(=O)Nc1ccccc1)NO [vorinostat]
How it was run: as §1

dasatinib = compound: Cc1nc(Nc2ncc(C(=O)Nc3c(C)cccc3Cl)s2)cc(N2CCN(CCO)CC2)n1 [dasatinib]
How it was run: as §1

[8] = compound: Cn1cc(-c2ccc3c(c2)CCN3C(=O)Cc2cccc(C(F)(F)F)c2)c2c(N)ncnc21
How it was run: as §1

[9] = compound: NC(=O)c1cnc(N[C@@H]2CCCC[C@@H]2N)nc1Nc1cccc(-n2nccn2)c1
How it was run: as §1

[10] = compound: NCC(=O)Nc1ccc(-n2nc(C(F)(F)F)cc2-c2ccc3c(ccc4ccccc43)c2)cc1
How it was run: as §1

[11] = compound: O=C1NC(=O)C(c2cnc3ccccn23)=C1c1cn2c3c(cc(F)cc13)CN(C(=O)N1CCCCC1)CC2
How it was run: as §1

Measured: log2 fold change

BPIFA1 (UniProt Q9NP55)
inactive: bafetinib 0.245 | nilotinib -0.049 | [1] 0.019 | [2] 0.19 | [3] 0.247 | mubritinib -0.183 | [4] 1.48 | [5] -0.045 | entinostat -0.061 | citarinostat 0.188 | silmitasertib -0.312 | [6] 0.708

ATXN2L (UniProt H3BUF6)
inactive: bafetinib -0.038 | [7] 0.151 | nilotinib 0.151 | [1] -0.15 | [2] 0.168 | [3] -0.154 | tipifarnib -0.072 | mubritinib 0.2 | [5] -0.051 | vorinostat -0.121 | citarinostat -0.058 | silmitasertib -0.012 | [6] 0.072

BRD8 isoform 2 (UniProt Q9H0E9)
inactive: bafetinib -0.057 | [7] 0.064 | dasatinib -0.136 | [8] -0.022 | [3] -0.038 | tipifarnib -0.038 | [4] -0.016 | [9] -0.205 | [10] -0.13 | entinostat 0.039 | vorinostat -0.092 | citarinostat -0.019 | [11] 0.102 | [6] -0.09

BDH2 (UniProt Q9BUT1)
inactive: bafetinib 0.114 | [7] 0.069 | dasatinib 0.031 | [8] 0.063 | [3] -0.032 | tipifarnib 0.017 | mubritinib 0.274 | [4] -0.091 | [9] -0.086 | [5] -0.042 | [10] 0.009 | entinostat 0.025 | vorinostat -0.03 | silmitasertib 0.076

BLOC1S6 (UniProt Q9UL45)
inactive: bafetinib 0.056 | nilotinib -0.066 | [1] -0.063 | dasatinib 0.003 | [2] 0.003 | [8] 0.068 | [3] 0.033 | tipifarnib -0.158 | mubritinib -0.053 | [4] 0.021 | [9] 0.003 | [5] 0.042 | [10] -0.065 | entinostat -0.009 | citarinostat 0.07 | silmitasertib 0.179 | [11] 0.007 | [6] -0.114

BRD2 isoform 2 (UniProt P25440)
inactive: bafetinib 0.136 | [7] 0.476 | dasatinib -0.32 | [8] 0.11 | tipifarnib -0.171 | [4] -0.01 | [9] -0.209 | [10] -0.112 | entinostat -0.159 | vorinostat -0.214

BNIP2 (UniProt H7C096)
inactive: bafetinib -0.046 | mubritinib 0.099 | [5] -0.008 | citarinostat 0.332 | silmitasertib 0.178 | [6] -0.041

BRAF (UniProt P15056)
inactive: bafetinib 0.067 | [7] 0.019 | [1] -0.099 | [2] -0.014 | [8] 0.03 | [3] 0.01 | tipifarnib -0.034 | mubritinib -0.059 | [4] -0.102 | [9] -0.079 | [10] -0.046 | entinostat 0.009 | vorinostat 0.012 | citarinostat -0.002 | silmitasertib 0.024 | [11] -0.007 | [6] -0.067

BPNT1 (UniProt A6NF51)
inactive: bafetinib 0.16 | [3] -0.128 | mubritinib 0.143 | [5] 0.011 | [10] 0.04 | citarinostat -0.024 | silmitasertib -0.035 | [11] -0.132 | [6] 0.098

BRI3BP (UniProt Q8WY22)
inactive: bafetinib -0.009 | nilotinib 0.028 | [1] -0.013 | dasatinib -0.056 | [2] 0.016 | [8] -0.002 | [3] -0.069 | tipifarnib 0.031 | mubritinib -0.041 | [4] 0.009 | [9] -0.01 | [5] -0.014 | [10] -0.16 | entinostat 0.028 | citarinostat 0.015 | silmitasertib 0.069 | [11] -0.045 | [6] -0.151

AVEN (UniProt Q9NQS1)
inactive: bafetinib -0.045 | [7] -0.124 | dasatinib 0.027 | [8] -0.157 | tipifarnib 0.086 | [10] 0.097 | vorinostat -0.17 | citarinostat 0.082 | [11] -0.033 | [6] -0.122

B4GALT4 (UniProt O60513)
inactive: bafetinib -0.029 | [7] 0.243 | nilotinib -0.154 | [1] -0.016 | [2] 0.014 | [3] -0.141 | [4] -0.085 | entinostat 0.146 | vorinostat -0.085

BLM (UniProt P54132)
inactive: bafetinib 0 | nilotinib 0.002 | [1] 0.049 | dasatinib -0.095 | [2] -0.035 | [8] 0.033 | [3] 0.019 | tipifarnib 0.04 | mubritinib 0.02 | [4] 0.039 | [9] -0.007 | [5] -0.093 | [10] -0.06 | entinostat 0.037 | citarinostat 0.009 | silmitasertib -0.091 | [6] -0.023

ATXN7L3 isoform 2 (UniProt Q14CW9)
inactive: bafetinib -0.123 | nilotinib 0.024 | [1] 0.043 | [2] -0.054 | [3] 0.03 | mubritinib 0.086 | [4] 0.182 | [9] 0.033 | [5] 0.207 | entinostat -0.346 | citarinostat -0.087 | silmitasertib -0.373 | [6] 0.051

Pulled one by one from the entries so far, two records:
AVEN (UniProt Q9NQS1)
inactive: bafetinib -0.045 | [7] -0.124 | dasatinib 0.027 | [8] -0.157 | tipifarnib 0.086 | [10] 0.097 | vorinostat -0.17 | citarinostat 0.082 | [11] -0.033 | [6] -0.122

B4GALT4 (UniProt O60513)
inactive: bafetinib -0.029 | [7] 0.243 | nilotinib -0.154 | [1] -0.016 | [2] 0.014 | [3] -0.141 | [4] -0.085 | entinostat 0.146 | vorinostat -0.085

Next records

BCOR (UniProt Q6W2J9)
inactive: bafetinib -0.309 | dasatinib 0.174 | [8] -0.157 | [4] -0.399 | [10] -0.271 | entinostat -0.215 | [11] -0.223
